Laboratory results: PubChem BioAssay AID1259254 (NCATS, 2017)
Shown is an unselected part of about 59,000 deposited reagents. About 1,550 of all reagents (2.6%) were called active. 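G2 share is only a proxy for re-replication; each gene was hit by three separate siRNAs, and active genes were retested.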 Unmarked entries are inactive. The numbers tell different reagents against one gene apart. Further read-outs or replicates are left out here. Not stated in the record: the amount of reagent.

Aim: 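Gene knock-downs that lead to re-replication, shown by excess G2 DNA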 (primary screen)
Cells: human HCT116 colorectal cancer cells
Knock-down reagent: single siRNA against human genes
Timing: 3 days
Read-out: 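Nuclei stained with Hoechst and imaged; cell-cycle phase assigned by DNA content; G2 share scaled per plate, non-targeting siRNA 0%, GMNN siRNA 100%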
Direction: G2 robust z-score: higher = more G2 cells, more excess DNA replication
Rule for the call: 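Active siRNAs have a G2 robust z of 5 or more median absolute deviations over the median, which in these data means about 38% or higher of GMNN control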

Gene	siRNA no.	G2 robust z-score
PHF23 (PHD finger protein 23)	1	-0.741
PHF23 (PHD finger protein 23)	2	-0.732
PHF23 (PHD finger protein 23)	3	2.05
HRH1 (histamine receptor H1)	1	0.994
HRH1 (histamine receptor H1)	2	4.61
HRH1 (histamine receptor H1)	3	3.93
APC2 (APC regulator of Wnt signaling pathway 2)	1	-0.471
APC2 (APC regulator of Wnt signaling pathway 2)	2	2.98
APC2 (APC regulator of Wnt signaling pathway 2)	3	-1.56
UGT2A1 (UDP glucuronosyltransferase family 2 member A1 complex locus)	1	0.874
UGT2A1 (UDP glucuronosyltransferase family 2 member A1 complex locus)	2	0.946
UGT2A1 (UDP glucuronosyltransferase family 2 member A1 complex locus)	3	-1.08
NAAA (N-acylethanolamine acid amidase)	1	-0.973
NAAA (N-acylethanolamine acid amidase)	2	-0.95
NAAA (N-acylethanolamine acid amidase)	3	-0.776
CCN2 (cellular communication network factor 2)	1	0.0242
CCN2 (cellular communication network factor 2)	2	0.663
CCN2 (cellular communication network factor 2)	3	0.0116
TSR3 (TSR3 ribosome maturation factor)	1	-0.92
TSR3 (TSR3 ribosome maturation factor)	2	-0.474
TSR3 (TSR3 ribosome maturation factor)	3	3.51
SLC22A17	1	0.391
SLC22A17	2	-1.14
SLC22A17	3	0.228
OR51Q1 (olfactory receptor family 51 subfamily Q member 1)	1	1.31
OR51Q1 (olfactory receptor family 51 subfamily Q member 1)	2	1.42
OR51Q1 (olfactory receptor family 51 subfamily Q member 1)	3	-0.0848
SEMA4D (semaphorin 4D)	1	-1.18
SEMA4D (semaphorin 4D)	2	0.722
SEMA4D (semaphorin 4D)	3	-1.34
SEMA4D (semaphorin 4D)	4	-0.189
SEMA4D (semaphorin 4D)	5	-0.513
SEMA4D (semaphorin 4D)	6	0.151
RASSF5 (Ras association domain family member 5)	1	-0.652
RASSF5 (Ras association domain family member 5)	2	1.45
RASSF5 (Ras association domain family member 5)	3	0.531
ARHGEF34P (Rho guanine nucleotide exchange factor 34, pseudogene)	1	1.21
ARHGEF34P (Rho guanine nucleotide exchange factor 34, pseudogene)	2	-0.714
ARHGEF34P (Rho guanine nucleotide exchange factor 34, pseudogene)	3	-0.381
BUB1 (BUB1 mitotic checkpoint serine/threonine kinase)	1	0.189
BUB1 (BUB1 mitotic checkpoint serine/threonine kinase)	2	0.0951
BUB1 (BUB1 mitotic checkpoint serine/threonine kinase)	3	-0.658

Reformatted: entries from further up
| Gene | siRNA no. | G2 robust z-score |
| --- | --- | --- |
| OR51Q1 (olfactory receptor family 51 subfamily Q member 1) | 1 | 1.31 |
| OR51Q1 (olfactory receptor family 51 subfamily Q member 1) | 2 | 1.42 |
| OR51Q1 (olfactory receptor family 51 subfamily Q member 1) | 3 | -0.0848 |
| SEMA4D (semaphorin 4D) | 1 | -1.18 |
| SEMA4D (semaphorin 4D) | 2 | 0.722 |
| SEMA4D (semaphorin 4D) | 3 | -1.34 |
| SEMA4D (semaphorin 4D) | 4 | -0.189 |
| SEMA4D (semaphorin 4D) | 5 | -0.513 |
| SEMA4D (semaphorin 4D) | 6 | 0.151 |
| RASSF5 (Ras association domain family member 5) | 1 | -0.652 |
| RASSF5 (Ras association domain family member 5) | 2 | 1.45 |
| RASSF5 (Ras association domain family member 5) | 3 | 0.531 |
| ARHGEF34P (Rho guanine nucleotide exchange factor 34, pseudogene) | 1 | 1.21 |
| ARHGEF34P (Rho guanine nucleotide exchange factor 34, pseudogene) | 2 | -0.714 |

Additional reagents follow:
Gene	siRNA no.	G2 robust z-score
NR2C1 (nuclear receptor subfamily 2 group C member 1)	1	-0.46
NR2C1 (nuclear receptor subfamily 2 group C member 1)	2	-1.07
NR2C1 (nuclear receptor subfamily 2 group C member 1)	3	-0.784
MYCT1 (MYC target 1)	1	1.28
MYCT1 (MYC target 1)	2	0.981
MYCT1 (MYC target 1)	3	2.57
YWHAE	1	1.12
YWHAE	2	0.836
YWHAE	3	-0.861
YWHAE	4	5.12 (active)
YWHAE	5	-0.372
YWHAE	6	0.624
GRM2 (glutamate metabotropic receptor 2)	1	4.83
GRM2 (glutamate metabotropic receptor 2)	2	4.87
GRM2 (glutamate metabotropic receptor 2)	3	7.38 (active)
MT3 (metallothionein 3)	1	-0.0515
MT3 (metallothionein 3)	2	0.324
MT3 (metallothionein 3)	3	1.92
ANKRD34C-AS1 (ANKRD34C antisense RNA 1)	1	-1.18
ANKRD34C-AS1 (ANKRD34C antisense RNA 1)	2	1.53
ANKRD34C-AS1 (ANKRD34C antisense RNA 1)	3	-0.592
TNP1 (transition protein 1)	1	0.179
TNP1 (transition protein 1)	2	-0.103
TNP1 (transition protein 1)	3	0.815
SLC44A3	1	-0.0179
SLC44A3	2	0.847
SLC44A3	3	-0.537
DRD3 (dopamine receptor D3)	1	-0.258
DRD3 (dopamine receptor D3)	2	0.53
DRD3 (dopamine receptor D3)	3	-0.638
CORO7 (coronin 7)	1	-0.771
CORO7 (coronin 7)	2	0.239
CORO7 (coronin 7)	3	-0.668
JTB (jumping translocation breakpoint)	1	-1.39
JTB (jumping translocation breakpoint)	2	-0.197
JTB (jumping translocation breakpoint)	3	0.0259
SP5 (Sp5 transcription factor)	1	0.66
SP5 (Sp5 transcription factor)	2	-0.226
SP5 (Sp5 transcription factor)	3	-0.725
PRR27 (proline rich 27)	1	0.922
PRR27 (proline rich 27)	2	0.276
PRR27 (proline rich 27)	3	-0.0526
RTL8B (retrotransposon Gag like 8B)	1	-0.129
RTL8B (retrotransposon Gag like 8B)	2	0.698
RTL8B (retrotransposon Gag like 8B)	3	0.912
